# Measurements taken from PubChem BioAssay AID1688 (National Center for Advancing Translational Sciences (NCATS), 2009).
# Out of some 220,000 compounds screened, about 2,400 (1.1%) were called active. Inconclusive means that the source gave no clear call. Such entries were picked first, then a sample of the others. Calls follow the shape of the dose curve; as a rule, active = well fitted inhibition curve with a large enough effect; inconclusive = small, poorly fitted or top-dose-only effect, or effect the other way; inactive = no such curve, though single readings can be large or run the other way. Where the call is inconclusive, the potency comes from a doubtful curve fit.
# Experiment: qHTS Multiplex Assay to Identify Dual Action Probes in a Cell Model of Huntington: Aggregate Formation (GFP); also: nearly all actives have a fitted effect of over 60% in size
# Conditions: PC12 HttQ103-GFP aggregates, Acumen cytometry, 40 h; activity change, negative = inhibition: at 46.1 µM (top of the series) unless noted
# Procedure, shortened: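 Aggregate formation scored by laser-scanning cytometer (488 excitation, 500–530 emission) in lysed PC12 cells expressing Q103-GFP after 100 nM tebufenozide induction; library tested in dose series, with ATPLite reagent added in the multiplex.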
# % is scaled to controls: 0 for no effect and ±100 for the full control effect; potency is read from the fitted curve at half-maximal effect.
Structure (SMILES),Potency,"activity change, negative = inhibition"
COc1ccc2c(c1)N(C)C(=O)CC(c1ccccc1)=N2,"inconclusive: 0.562 µM [activator, full curve]",–
CCc1nnc(SCc2ccc(OC)c(Br)c2)n1N,inactive,–
CCOC(=O)C(C(=O)OCC)C(C(=O)OCC)N1CCOCC1 (stereo not drawn),inactive,–
Cc1ccc(NC(=O)C2CCCN(S(=O)(=O)c3c(C)noc3C)C2)c(C)c1 (stereo not drawn),"inconclusive: 12.6 µM [inhibitor, single point]",–
O=C(Nc1nc2ccccc2n1CCOc1ccc(Cl)cc1)c1ccco1,"inconclusive: 8.91 µM [inhibitor, partial curve]",–
Cc1ccc(C(=O)N2c3ccccc3N(Cc3ccccc3)C(=O)C2(C)C)cc1,"inconclusive: 14.1 µM [inhibitor, single point]",–
CCC(=O)OCCNc1cc(Sc2nccn2C)c2nonc2c1[N+](=O)[O-],active: 7.08 µM,–
O=C(Nc1ccc(OC(F)(F)F)cc1)c1ccc2ccccc2n1,"inconclusive: 12.6 µM [inhibitor, partial curve]",–
Cc1cc2ncn(/N=C/c3ccc4c(c3)OCO4)c2cc1C,"inconclusive: 12.6 µM [inhibitor, single point]",–
O=C(NCc1ccccc1)c1cccc(S(=O)(=O)NCc2ccccc2)c1,"inconclusive: 5.62 µM [inhibitor, single point]",–
Cn1c(N2CCN(C(=O)Nc3ccc(F)cc3)CC2)nc2ccccc21,"inconclusive: 0.891 µM [activator, single point]",–
COc1ccc(CCNC(=O)CSc2nnc(-c3ccccc3)c3ccccc23)cc1OC,"inconclusive: 15.8 µM [activator, single point]",–
CCOc1ccc(S(=O)(=O)N(CC(=O)N2CCc3ccccc32)Cc2ccco2)cc1,"inconclusive: 17.8 µM [inhibitor, partial curve]",–
CCc1nnc(NC(=O)C2CCCN(S(=O)(=O)c3ccc(OC)cc3)C2)s1 (stereo not drawn),–,inactive: 26.8% [at 9.22 µM]
CCOC(=O)C1=C(CNCCc2ccc(Cl)cc2)NC(=O)NC1c1cccc([N+](=O)[O-])c1 (stereo not drawn),"inconclusive: 3.55 µM [activator, partial curve]",–
CCOC(=O)N1CCN(Cc2nc3c(c(=O)n(C)c(=O)n3C)n2CCC(C)C)CC1,inactive,–
O=C(CSc1nnc(-c2cccs2)n1-c1ccccc1)Nc1ccccc1,"inconclusive: 3.98 µM [inhibitor, single point]",–
NC(=O)C(=CNc1nc(-c2ccc(Cl)c(Cl)c2)cs1)C(N)=O,–,inactive: -1.34% [at 9.22 µM]
CC(C)C(NC(=O)c1ccco1)C(=O)OCC(=O)Nc1ccc(C(N)=O)cc1 (stereo not drawn),"inconclusive: 31.6 µM [activator, single point]",–
O=C(NC(=S)NNC(=O)c1ccccc1O)c1ccco1,"inconclusive: 7.08 µM [inhibitor, partial curve]",–
CCN(CC)C(=O)CSc1nnc(-c2cc3ccccc3cc2O)n1CC,"inconclusive: 7.94 µM [inhibitor, partial curve]",–
CCN1C(=O)/C(=C/c2ccc(C)s2)SC1=Nc1ccc(OC)cc1,inactive,–
CN1CCN(NC(=O)C2CC2)CC1,inactive,–
CCOC(=O)N1CCN(C(=O)c2nn(-c3cc(OC)cc(OC)c3)c(=O)c3ccccc23)CC1,inactive,–

Structure (SMILES),Potency,"activity change, negative = inhibition"
Cc1ccccc1N/C(SCc1ccc(Cl)cc1)=C(/C#N)C(=O)NCc1ccco1,"inconclusive: 35.5 µM [inhibitor, single point]",–
Cc1cnc(C(=O)Nc2ccccc2-n2cccc2)cn1,inactive,–
Cc1cc(C)n(C(=O)CCCn2nc(C)c([N+](=O)[O-])c2C)n1,"inconclusive: 35.5 µM [activator, single point]",–
S=C(c1ccc(-c2cc(Cl)ccc2Cl)o1)N1CCOCC1,inactive,–
CN(C)/C=C(/C#N)C(=O)c1cccc(Oc2ccc(C(C)(C)C)cc2)c1,inactive,–
C=CCn1c(NS(=O)(=O)c2ccccc2)c(S(=O)(=O)c2ccc(C)cc2)c2nc3ccccc3nc21,inactive,–
CCOc1ccc(C(=O)N/N=C/c2cccc3cccnc23)cc1,active: 3.55 µM,–
Cc1ccc(S(=O)(=O)N(C)CC(=O)OCc2nnc(-c3ccccc3)o2)cc1,"inconclusive: 0.0891 µM [inhibitor, full curve, poor fit]",–
Cc1cccc(NCC(=O)c2c(N)n(C)c(=O)n(C)c2=O)c1C,"inconclusive: 12.6 µM [inhibitor, partial curve, poor fit]",–
N#Cc1cccc(-c2cn(S(=O)(=O)c3ccc(Cl)cc3)nc2N)c1,"inconclusive: 35.5 µM [inhibitor, single point]",–
O=C(O)COc1ccc(C(=O)c2cccs2)c(Cl)c1Cl,inactive,–
O=C(NCc1ccco1)c1cc(NS(=O)(=O)c2cccc([N+](=O)[O-])c2)ccc1O,inactive,–
CC1=C(C(=O)OCc2ccccc2)C(c2ccccc2)NC(=O)N1CCCCCC(=O)O (stereo not drawn),inactive,–
CC1CCN(S(=O)(=O)c2ccc3c(c2)C(=NO)c2cc(S(=O)(=O)N4CCC(C)CC4)ccc2-3)CC1,active: 3.16 µM,–
O=C(Nc1ccc(N2CCN(C(=O)c3cccs3)CC2)c(Cl)c1)c1cccnc1,"inconclusive: 35.5 µM [inhibitor, single point]",–
CC(C)n1nnnc1SCC(=O)NCc1ccc2c(c1)OCO2,inactive,–
O=C(COc1ccccc1)NC(=S)Nc1ccc2c(c1)Cc1ccccc1-2,"inconclusive: 5.62 µM [activator, full curve]",–
Cc1[nH]n(-c2ncc(-c3ccccc3)s2)c(=O)c1C(c1ccc(Cl)cc1)C(C#N)C#N (stereo not drawn),"inconclusive: 20 µM [activator, single point]",–
Cc1cccc(NC(=O)c2c(-c3ccccc3)noc2C)n1,inactive,–
CC(C)OC(=O)c1cn(-c2ccccc2)nc1-c1ccco1,"inconclusive: 11.2 µM [activator, single point]",–
CCS(=O)(=O)N1CCC(c2nc(-c3ccc(C(F)(F)F)cc3)no2)CC1,active: 11.2 µM,–
CN1CCc2nc3sc(C(=O)NCc4ccccc4)c(N)c3cc2C1,–,inactive: 4.62% [at 9.22 µM]
Cc1ccc(NC(=S)Nc2cccc3cnccc23)cc1C,inactive,–
O=C(O)COc1ccc(=O)n(-c2ccccc2)n1,"inconclusive: 1.58 µM [activator, full curve, poor fit]",–
CCN(CC)S(=O)(=O)c1ccc(N/N=C/c2cc(OC)ccc2O)nc1,active: 2.82 µM,–

# Single records (already shown).
# `Cc1ccc(C(=O)N2c3ccccc3N(Cc3ccccc3)C(=O)C2(C)C)cc1` is listed as Potency: inconclusive: 14.1 µM [inhibitor, single point]
# `CCOC(=O)C(C(=O)OCC)C(C(=O)OCC)N1CCOCC1` (stereo not drawn) is listed as Potency: inactive
# `CC(C)OC(=O)c1cn(-c2ccccc2)nc1-c1ccco1` is listed as Potency: inconclusive: 11.2 µM [activator, single point]
# `CCN(CC)C(=O)CSc1nnc(-c2cc3ccccc3cc2O)n1CC` is listed as Potency: inconclusive: 7.94 µM [inhibitor, partial curve]

# An excerpt of these results, with tabs.
Structure (SMILES)	Potency	activity change, negative = inhibition
Cc1cnc(C(=O)Nc2ccccc2-n2cccc2)cn1	inactive	–
Cc1cc(C)n(C(=O)CCCn2nc(C)c([N+](=O)[O-])c2C)n1	inconclusive: 35.5 µM [activator, single point]	–

# Continued.

Structure (SMILES),Potency,"activity change, negative = inhibition"
CN1CCc2nc(NC(=O)COc3ccc4ccccc4c3)sc2C1,"inconclusive: 35.5 µM [activator, single point]",–
Cn1c(N=NC(=O)c2ccccc2)c(O)c2ccccc21,inactive,–
Cc1cccc(NC(=O)c2cc(-c3ccc(C)s3)nc3ccccc23)n1,"inconclusive: 35.5 µM [inhibitor, single point]",–
CCCn1c(C)cc(/C=C(\C#N)C(=O)OCC(=O)NC(=O)NCC)c1C,"inconclusive: 3.98 µM [activator, single point]",–
O=C(Nc1ccccc1CC[N+](=O)[O-])N1CCN(c2ccccc2)CC1,"inconclusive: 0.708 µM [activator, partial curve]",–
Nc1nonc1C(=O)N/N=C/c1cc(Br)ccc1O,"inconclusive: 7.94 µM [inhibitor, partial curve]",–
COC(=O)C1=C(C)Nc2nnnn2C1c1ccco1 (stereo not drawn),inactive,–
O=C(CC1SC(=Nc2ccccc2)N(CCc2c[nH]c3ccccc23)C1=O)Nc1ccccc1F (stereo not drawn),"inconclusive: 0.562 µM [activator, partial curve, poor fit]",–
Cc1cc(Cl)ccc1NNC(=O)c1snnc1C,–,inactive: 3.92% [at 9.22 µM]
CC(C)(C)NC(=O)CSc1nc2ccc(NC(=O)CSc3nnnn3Cc3ccccc3)cc2s1,"inconclusive: 22.4 µM [inhibitor, single point]",–
CN(CC(=O)Nc1nc2ccccc2s1)S(=O)(=O)c1ccc(Br)cc1,"inconclusive: 15.8 µM [inhibitor, single point]",–
CCCNc1nc2c(c(=O)n(C)c(=O)n2C)n1Cc1ccc(F)cc1,"inconclusive: 8.91 µM [inhibitor, partial curve]",–
O=C(CCc1nc(-c2ccccc2)no1)NCCc1ccccc1,inactive,–
CCn1c(C)[n+](CCCS(=O)(=O)[O-])c2cc(Cl)c(Cl)cc21,"inconclusive: 22.4 µM [activator, single point]",–
CCCCc1ccc(NC(=S)N2CCCC(C)C2)cc1 (stereo not drawn),inactive,–
Cc1nc2ccccc2c(=O)n1NC(=O)/C=C/c1ccccc1,"inconclusive: 1.41 µM [inhibitor, partial curve]",–
O=C(N=c1ccn(-c2nc3ccccc3nc2NS(=O)(=O)c2ccc(Cl)cc2)cc1)c1cccs1,–,inactive: -21.5% [at 9.22 µM]
Cc1[nH][nH]c(=O)c1C(c1ccc(-c2ccc(Cl)c(Cl)c2)o1)c1c(C)[nH][nH]c1=O,inactive,–
CCCOc1ccc(C(=O)c2nc3c(n2O)CCCCC3)cc1,"inconclusive: 25.1 µM [inhibitor, single point]",–
O=C(NC1CCCCC1)N1CCCC1,"inconclusive: 2.82 µM [activator, partial curve]",–
Fc1ccc(CSc2nnc(-c3ccncc3)o2)cc1,"inconclusive: 3.98 µM [inhibitor, single point]",–
c1ccc(Oc2cnc3ccccc3n2)cc1,"inconclusive: 35.5 µM [inhibitor, single point]",–
Cc1ccc(C(=O)Nc2ccncc2)o1,"inconclusive: 3.55 µM [activator, partial curve]",–
